Reference: PubChem BioAssay AID1508597 (Cure First, 2020)
This is a random part of the about 2,100 reagents, in one setting of the screen. 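Calls flag viability under 80% in either arm, not effects specific to rucaparib; the reference for percent is not stated.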 A reagent listed more than once was tested more than once; the source does not tell the runs apart. The record does not give: the 100% reference.

Assay: 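Genes whose silencing sensitises or protects ovarian cancer cells against rucaparib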 (primary screen)
System: human ovarian carcinoma lines grown from tumours: OCI-P5x (papillary serous) and OCI-C5x (clear cell)
Reagent: siRNA pool against human genes, 1.25 pmol siRNA per well
Duration: 72 h or 96 h, depending on the cell culture
Challenge: rucaparib 20 µM (about IC30) or vehicle, present until read-out
Rucaparib or vehicle: Vehicle
Cell line: OCI-C5x (clear cell)
Detection: 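ATP luminescence measured at 72 or 96 h according to the culture, then normalised and expressed as percent viability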
Reading the numbers: viability, normalised: higher = more viable cells remaining
Rule for the call: 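Active when normalised viability falls below 80 percent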
Meaning of the calls: active = viability under 80%; inactive = viability 80% or more

{"gene knocked down": "CFAP46", "technical replicate": "1", "viability, normalised (%)": 58.1, "Call": "active"}
{"gene knocked down": "CFAP46", "technical replicate": "2", "viability, normalised (%)": 73.8, "Call": "active"}
{"gene knocked down": "CFAP46", "technical replicate": "3", "viability, normalised (%)": 63.7, "Call": "active"}
{"gene knocked down": "UCK2", "technical replicate": "1", "viability, normalised (%)": 40, "Call": "active"}
{"gene knocked down": "UCK2", "technical replicate": "2", "viability, normalised (%)": 42, "Call": "active"}
{"gene knocked down": "UCK2", "technical replicate": "3", "viability, normalised (%)": 40.4, "Call": "active"}
{"gene knocked down": "ALKBH2", "technical replicate": "1", "viability, normalised (%)": 58.6, "Call": "active"}
{"gene knocked down": "ALKBH2", "technical replicate": "2", "viability, normalised (%)": 79.7, "Call": "active"}
{"gene knocked down": "ALKBH2", "technical replicate": "3", "viability, normalised (%)": 44.6, "Call": "active"}
{"gene knocked down": "RBL2", "technical replicate": "1", "viability, normalised (%)": 52, "Call": "active"}
{"gene knocked down": "RBL2", "technical replicate": "2", "viability, normalised (%)": 51.4, "Call": "active"}
{"gene knocked down": "RBL2", "technical replicate": "3", "viability, normalised (%)": 43.9, "Call": "active"}
{"gene knocked down": "CDK6", "technical replicate": "1", "viability, normalised (%)": 79.5, "Call": "active"}
{"gene knocked down": "CDK6", "technical replicate": "2", "viability, normalised (%)": 53, "Call": "active"}
{"gene knocked down": "CDK6", "technical replicate": "3", "viability, normalised (%)": 62.5, "Call": "active"}
{"gene knocked down": "NHEJ1", "technical replicate": "1", "viability, normalised (%)": 58.7, "Call": "active"}
{"gene knocked down": "NHEJ1", "technical replicate": "1", "viability, normalised (%)": 29.7, "Call": "active"}
{"gene knocked down": "NHEJ1", "technical replicate": "2", "viability, normalised (%)": 31.4, "Call": "active"}
{"gene knocked down": "NHEJ1", "technical replicate": "2", "viability, normalised (%)": 68.5, "Call": "active"}
{"gene knocked down": "NHEJ1", "technical replicate": "3", "viability, normalised (%)": 40.7, "Call": "active"}
{"gene knocked down": "NHEJ1", "technical replicate": "3", "viability, normalised (%)": 49.1, "Call": "active"}
{"gene knocked down": "CHKB", "technical replicate": "1", "viability, normalised (%)": 68.8, "Call": "active"}
{"gene knocked down": "CHKB", "technical replicate": "2", "viability, normalised (%)": 62, "Call": "active"}
{"gene knocked down": "CHKB", "technical replicate": "3", "viability, normalised (%)": 48.7, "Call": "active"}
{"gene knocked down": "PPARGC1A", "technical replicate": "1", "viability, normalised (%)": 41.2, "Call": "active"}
{"gene knocked down": "PPARGC1A", "technical replicate": "2", "viability, normalised (%)": 44.4, "Call": "active"}
{"gene knocked down": "PPARGC1A", "technical replicate": "3", "viability, normalised (%)": 52.6, "Call": "active"}
{"gene knocked down": "STK25", "technical replicate": "1", "viability, normalised (%)": 87.5, "Call": "inactive"}
{"gene knocked down": "STK25", "technical replicate": "2", "viability, normalised (%)": 38, "Call": "active"}
{"gene knocked down": "STK25", "technical replicate": "3", "viability, normalised (%)": 50, "Call": "active"}
{"gene knocked down": "PRKAG1", "technical replicate": "1", "viability, normalised (%)": 82.2, "Call": "inactive"}
{"gene knocked down": "PRKAG1", "technical replicate": "2", "viability, normalised (%)": 85.3, "Call": "inactive"}
{"gene knocked down": "PRKAG1", "technical replicate": "3", "viability, normalised (%)": 64.7, "Call": "active"}
{"gene knocked down": "PRDM5", "technical replicate": "1", "viability, normalised (%)": 35.5, "Call": "active"}
{"gene knocked down": "PRDM5", "technical replicate": "2", "viability, normalised (%)": 30.6, "Call": "active"}
{"gene knocked down": "PRDM5", "technical replicate": "3", "viability, normalised (%)": 31.3, "Call": "active"}
{"gene knocked down": "ADCK5", "technical replicate": "1", "viability, normalised (%)": 61.7, "Call": "active"}
{"gene knocked down": "ADCK5", "technical replicate": "2", "viability, normalised (%)": 43.4, "Call": "active"}
{"gene knocked down": "ADCK5", "technical replicate": "3", "viability, normalised (%)": 46.3, "Call": "active"}
{"gene knocked down": "ALDH18A1", "technical replicate": "1", "viability, normalised (%)": 55.5, "Call": "active"}
{"gene knocked down": "ALDH18A1", "technical replicate": "2", "viability, normalised (%)": 50.3, "Call": "active"}
{"gene knocked down": "ALDH18A1", "technical replicate": "3", "viability, normalised (%)": 56.2, "Call": "active"}
